According to patent US6630490B2, “Methods for treatment of disease-induced peripheral neuropathy and related conditions” (NeoTherapeutics, Inc., priority 2000, dated 2003):

Assay: General physiology (plasma glucose, body weight) in streptozotocin-diabetic rats
Format: in vivo, rat
Conditions: control or diabetic rats, end of study

O=C(CCn1cnc2c(=O)[nH]cnc21)Nc1ccc(C(=O)O)cc1 [AIT-082, N-4-carboxyphenyl-3-(6-oxohydropurin-9-yl) propanamide]
plasma glucose levels: did not affect
